Measurements reported in article PMC9166766.
These are yes or no findings as the source states them, for the method shown. In cells and extracts the contact can be indirect. Some entries that bind do so weakly or less than the wild type.

Protein sequences, listed by entry. Tags and fused reporters are not part of them.
UniProt Q9Y6J0: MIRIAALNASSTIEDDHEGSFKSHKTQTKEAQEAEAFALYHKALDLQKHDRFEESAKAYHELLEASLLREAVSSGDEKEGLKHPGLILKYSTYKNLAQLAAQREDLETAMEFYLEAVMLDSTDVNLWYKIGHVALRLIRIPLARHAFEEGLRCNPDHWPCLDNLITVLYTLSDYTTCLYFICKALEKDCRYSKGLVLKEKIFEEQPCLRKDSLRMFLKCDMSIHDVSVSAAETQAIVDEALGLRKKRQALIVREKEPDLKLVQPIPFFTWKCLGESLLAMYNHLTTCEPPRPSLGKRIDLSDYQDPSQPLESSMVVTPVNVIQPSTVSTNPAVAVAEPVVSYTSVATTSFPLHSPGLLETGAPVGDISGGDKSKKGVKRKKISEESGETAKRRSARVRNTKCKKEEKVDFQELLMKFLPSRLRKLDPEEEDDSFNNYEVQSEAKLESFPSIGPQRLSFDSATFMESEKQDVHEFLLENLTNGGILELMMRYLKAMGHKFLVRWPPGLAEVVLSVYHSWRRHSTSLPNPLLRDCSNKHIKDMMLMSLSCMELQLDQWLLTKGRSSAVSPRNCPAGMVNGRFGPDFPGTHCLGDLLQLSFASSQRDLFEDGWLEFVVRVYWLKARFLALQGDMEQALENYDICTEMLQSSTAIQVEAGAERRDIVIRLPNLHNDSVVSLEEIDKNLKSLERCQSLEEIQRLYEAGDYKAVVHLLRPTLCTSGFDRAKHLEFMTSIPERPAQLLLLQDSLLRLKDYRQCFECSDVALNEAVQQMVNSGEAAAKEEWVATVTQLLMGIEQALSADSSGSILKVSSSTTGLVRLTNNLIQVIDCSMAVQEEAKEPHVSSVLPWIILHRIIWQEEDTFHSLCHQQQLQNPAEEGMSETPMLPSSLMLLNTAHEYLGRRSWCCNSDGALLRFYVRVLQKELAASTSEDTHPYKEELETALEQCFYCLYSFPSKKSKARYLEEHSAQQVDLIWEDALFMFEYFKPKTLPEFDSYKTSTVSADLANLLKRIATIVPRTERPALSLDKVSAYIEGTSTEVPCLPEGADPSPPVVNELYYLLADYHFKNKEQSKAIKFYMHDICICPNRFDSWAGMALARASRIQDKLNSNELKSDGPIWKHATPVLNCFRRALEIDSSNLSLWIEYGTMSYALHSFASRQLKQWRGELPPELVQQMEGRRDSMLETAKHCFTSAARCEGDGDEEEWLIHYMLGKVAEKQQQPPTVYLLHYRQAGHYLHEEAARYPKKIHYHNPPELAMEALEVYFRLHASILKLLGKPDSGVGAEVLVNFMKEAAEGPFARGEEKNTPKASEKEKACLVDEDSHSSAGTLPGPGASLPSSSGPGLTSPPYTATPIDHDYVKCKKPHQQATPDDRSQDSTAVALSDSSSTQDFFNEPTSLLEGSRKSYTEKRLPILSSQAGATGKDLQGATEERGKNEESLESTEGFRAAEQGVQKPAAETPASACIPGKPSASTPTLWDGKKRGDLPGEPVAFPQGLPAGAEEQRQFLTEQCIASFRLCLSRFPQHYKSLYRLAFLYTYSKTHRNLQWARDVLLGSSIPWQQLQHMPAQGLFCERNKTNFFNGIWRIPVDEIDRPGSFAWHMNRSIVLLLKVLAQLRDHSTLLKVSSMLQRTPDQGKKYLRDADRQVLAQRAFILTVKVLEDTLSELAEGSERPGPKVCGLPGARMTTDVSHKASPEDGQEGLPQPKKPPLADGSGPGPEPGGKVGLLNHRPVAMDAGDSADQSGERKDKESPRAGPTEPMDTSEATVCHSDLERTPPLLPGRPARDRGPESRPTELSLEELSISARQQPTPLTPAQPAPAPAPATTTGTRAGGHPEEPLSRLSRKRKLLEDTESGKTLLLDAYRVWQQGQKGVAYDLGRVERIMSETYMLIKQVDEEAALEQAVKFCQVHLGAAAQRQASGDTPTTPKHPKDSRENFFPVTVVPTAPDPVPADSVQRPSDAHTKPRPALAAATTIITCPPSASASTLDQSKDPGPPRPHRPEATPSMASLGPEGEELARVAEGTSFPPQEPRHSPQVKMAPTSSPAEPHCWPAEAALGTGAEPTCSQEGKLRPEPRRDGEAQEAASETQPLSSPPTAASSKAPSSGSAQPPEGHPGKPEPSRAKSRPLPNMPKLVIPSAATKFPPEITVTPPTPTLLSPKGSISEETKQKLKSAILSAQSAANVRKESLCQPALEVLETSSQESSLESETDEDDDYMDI
UniProt Q16539: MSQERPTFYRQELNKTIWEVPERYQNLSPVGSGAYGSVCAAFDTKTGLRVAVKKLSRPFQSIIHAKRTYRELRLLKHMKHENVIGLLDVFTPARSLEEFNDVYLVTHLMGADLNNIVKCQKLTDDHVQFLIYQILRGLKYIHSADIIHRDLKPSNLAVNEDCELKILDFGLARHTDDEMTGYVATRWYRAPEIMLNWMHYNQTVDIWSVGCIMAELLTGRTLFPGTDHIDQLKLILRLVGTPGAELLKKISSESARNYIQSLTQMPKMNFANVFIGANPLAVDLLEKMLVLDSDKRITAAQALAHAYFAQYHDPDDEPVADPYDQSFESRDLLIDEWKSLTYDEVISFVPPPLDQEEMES

Biological target: HA-CABIN1 (UniProt Q9Y6J0)
Assay: co-IP; transfected HEK293T cells lysed in IP150 buffer; Flag- and HA-tagged proteins precipitated with Anti-FLAG M2 Affinity Gel or Anti-HA Agarose; western blot

## Flag-p38α (from UniProt Q16539 1-360)
  binding: binds
